Results on 6 sequences are retold here after paper PMC2738963.

Protein sequences, listed by entry. Tags and fused reporters are not part of them. Lines headed by an entry give the natural chain unless they say otherwise; changes in a name come on top.
UniProt P08047, whole entry: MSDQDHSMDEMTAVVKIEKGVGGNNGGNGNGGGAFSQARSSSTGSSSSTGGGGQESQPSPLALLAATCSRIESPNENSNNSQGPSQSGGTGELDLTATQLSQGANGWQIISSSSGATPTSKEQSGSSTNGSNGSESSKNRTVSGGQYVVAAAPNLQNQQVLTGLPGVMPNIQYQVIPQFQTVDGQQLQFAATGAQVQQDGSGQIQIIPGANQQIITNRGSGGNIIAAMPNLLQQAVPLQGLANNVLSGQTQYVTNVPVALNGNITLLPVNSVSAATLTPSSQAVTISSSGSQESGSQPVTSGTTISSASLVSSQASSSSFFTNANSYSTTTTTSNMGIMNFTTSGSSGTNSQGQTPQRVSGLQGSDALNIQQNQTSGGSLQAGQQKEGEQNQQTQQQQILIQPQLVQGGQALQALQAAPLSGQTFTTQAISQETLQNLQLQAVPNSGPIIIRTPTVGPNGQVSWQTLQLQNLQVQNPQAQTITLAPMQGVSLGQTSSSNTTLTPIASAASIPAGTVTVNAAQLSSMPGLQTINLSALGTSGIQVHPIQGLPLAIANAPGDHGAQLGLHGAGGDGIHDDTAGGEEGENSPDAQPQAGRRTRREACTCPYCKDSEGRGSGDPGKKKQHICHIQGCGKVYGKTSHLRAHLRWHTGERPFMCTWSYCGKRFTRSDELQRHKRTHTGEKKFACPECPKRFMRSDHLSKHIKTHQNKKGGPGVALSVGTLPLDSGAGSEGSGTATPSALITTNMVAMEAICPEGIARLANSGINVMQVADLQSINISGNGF
UniProt Q02447: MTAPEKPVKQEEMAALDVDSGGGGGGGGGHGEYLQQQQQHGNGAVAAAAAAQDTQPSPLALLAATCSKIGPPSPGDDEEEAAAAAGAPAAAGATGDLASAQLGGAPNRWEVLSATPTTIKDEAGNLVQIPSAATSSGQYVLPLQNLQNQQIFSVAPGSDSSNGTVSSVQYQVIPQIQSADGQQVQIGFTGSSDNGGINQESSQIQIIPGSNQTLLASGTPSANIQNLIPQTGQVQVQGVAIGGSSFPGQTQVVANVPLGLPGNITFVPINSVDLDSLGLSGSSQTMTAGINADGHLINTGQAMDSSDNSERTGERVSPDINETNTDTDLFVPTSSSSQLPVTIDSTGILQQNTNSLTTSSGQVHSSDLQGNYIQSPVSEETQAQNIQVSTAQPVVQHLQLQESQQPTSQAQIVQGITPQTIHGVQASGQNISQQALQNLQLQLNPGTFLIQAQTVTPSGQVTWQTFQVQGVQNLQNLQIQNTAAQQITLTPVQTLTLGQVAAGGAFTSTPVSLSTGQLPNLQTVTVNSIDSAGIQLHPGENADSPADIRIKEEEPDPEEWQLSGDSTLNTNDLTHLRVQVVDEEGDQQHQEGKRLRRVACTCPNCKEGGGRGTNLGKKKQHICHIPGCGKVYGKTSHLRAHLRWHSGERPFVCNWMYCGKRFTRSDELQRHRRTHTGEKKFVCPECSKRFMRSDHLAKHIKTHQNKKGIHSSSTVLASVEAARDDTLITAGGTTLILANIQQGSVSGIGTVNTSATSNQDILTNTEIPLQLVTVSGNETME

Construct, isoform or probe ends are uncertain for at least one entry. Where cells or extracts were used, other partners may take part. For part of these data: Negatives hold for the conditions tested.

Series [1] has as its target Sp1 (UniProt P08047). Description: competition with a labelled probe. Conditions: 50 uM ZnCl2, EMSA: 10 ug nuclear extract, 20 mM HEPES pH 7.3, 60 mM KCl, 1 mM MgCl2, 50 uM ZnCl2, 0.25 mM DTT, 0.1 mM EDTA, 10% glycerol, 10 ug BSA, 1-2 ug poly(dI-dC), protein in an extract, label: none (competitor). For orientation: A gel shift assay detects complexes by their altered migration in electrophoresis.

Series [2] deals with Sp3 (UniProt Q02447). The series can be described thus: competition with a labelled probe. Conditions: 50 uM ZnCl2, EMSA: 10 ug nuclear extract, 20 mM HEPES pH 7.3, 60 mM KCl, 1 mM MgCl2, 50 uM ZnCl2, 0.25 mM DTT, 0.1 mM EDTA, 10% glycerol, 10 ug BSA, 1-2 ug poly(dI-dC), protein in an extract, label: none (competitor).
For series [3], the target named is Sp1 (UniProt P08047). Description: EMSA supershift. Conditions: 50 uM ZnCl2, +/- TSA no change; EMSA: 10 ug nuclear extract, 20 mM HEPES pH 7.3, 60 mM KCl, 1 mM MgCl2, 50 uM ZnCl2, 0.25 mM DTT, 0.1 mM EDTA, 10% glycerol, 10 ug BSA, 1-2 ug poly(dI-dC); protein in an extract.
Series [4] concerns the target Sp3 (UniProt Q02447). Description: EMSA supershift. Conditions: 50 uM ZnCl2, +/- TSA no change, antibody decreased complex; EMSA: 10 ug nuclear extract, 20 mM HEPES pH 7.3, 60 mM KCl, 1 mM MgCl2, 50 uM ZnCl2, 0.25 mM DTT, 0.1 mM EDTA, 10% glycerol, 10 ug BSA, 1-2 ug poly(dI-dC); protein in an extract.
[5] abbreviates: did not compete with GC box1 wt probe.
Where [6] appears, read: did not compete with GC box2 wt probe.
Setting [7] is: did not compete with GC box3 wt probe.

Take “GGAAAGGCTCTGTTCTGGGAAGTTGCGTGTCCGCGT (double strand) [GC box1 mut]”: the binding result with Sp1 [1] (setting [5]) and with Sp3 [2] (setting [5]) was “no binding” in each case.

Consider “TGTCCGCGTTCGGAGTTGCGTTTCCGCGT (double strand) [GC box2 mut]”, for which the binding result with Sp1 [1] (setting [6]) and with Sp3 [2] (setting [6]) was “no binding” in each case.

In the case of “GGAAAGGCTCTGGGCTGGGAAGGGGCGTGGCCGCGG (double strand) [GC box1 wt]”, the binding result with Sp1 [3] and in the series with Sp3 [4] was “binds” in each case.

Consider “TTTCCGCGTTCGGAGTTGCGTTGCCTCCTT (double strand) [GC box3 mut]”, for which the binding result in the series with Sp1 [1] (setting [7]) and with Sp3 [2] (setting [7]) was “no binding” in each case.

On to “TGGCCGCGGGCGGAGGGGCGTGGCCGCGG (double strand) [GC box2 wt]”, for which the binding result in the series with Sp1 [3] and with Sp3 [4] was “binds” in each case.

Consider “TGGCCGCGGGCGGAGGGGCGTGGCCTCCTT (double strand) [GC box3 wt]”, for which the binding result with Sp1 [3] and in the series with Sp3 [4] was “binds” throughout.
